Measurements reported in PubChem BioAssay AID1053208 (Peter MacCallum Cancer Centre, 2014)

- Purpose: 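Genes whose silencing cuts survival of bone tumour cells only with doxorubicin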 (primary screen)
- System: mouse osteosarcoma cells, early-passage culture from an engineered mouse model of fibroblastic bone tumour
- Reagents: siRNA pool against mouse genes, 40 nM
- Duration: about 120 h (48 h before drug, then 72 h with drug)
- Conditions: doxorubicin 100 nM for 72 h, roughly 30-40% inhibitory dose
- Measurement: 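Luminescent ATP signal taken as viability with or without 100 nM doxorubicin for 72 h; mean of two wells set against non-targeting siRNA and turned into robust z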
- Scale: viability z-score with doxorubicin: higher = more viable cells under doxorubicin; viability z-score without drug: higher = more viable cells with knock-down alone
- Active means: 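Called active if knock-down leaves viability unchanged without drug (z within -2 to 2) but lowers it with doxorubicin (z at or under -2)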
Here is a random part of about 17,000 reagents tested. 788 of them (4.7%) were called active. 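Calls rest on z-score classes alone; an extra cut-off of viability at most 70% of control was not applied to them.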 Entries without a mark were called inactive. Reagents against one gene are numbered here. Some reagents were tested in more than one well and are listed for each. Not all columns of the deposit are shown. Reagent sequences are not shown.

| gene knocked down | reagent | combined z-score class | viability z-score with doxorubicin | viability z-score without drug |
| --- | --- | --- | --- | --- |
| Ccdc22 (coiled-coil domain containing 22) | 1 | low cell count with doxorubicin only (active) | -3.15 | 1.01 |
| Purg (purine-rich element binding protein G) | 1 | no change with or without drug | -1.69 | 1.52 |
| Gps1 (G protein pathway suppressor 1) | 1 | no change with or without drug | 0.45 | -0.51 |
| Csk (c-src tyrosine kinase) | 1 | high cell count without drug only | -0.45 | 3.2 |
| Muc4 (mucin 4) | 1 | high cell count without drug only | 0.67 | 2.19 |
| Muc4 (mucin 4) | 2 | no change with or without drug | -1.8 | -1.18 |
| Or2y15 (olfactory receptor family 2 subfamily Y member 15) | 1 | no change with or without drug | -0.9 | -0.34 |
| Adgrl1 (adhesion G protein-coupled receptor L1) | 1 | no change with or without drug | 0.67 | 0.34 |
| Raet1b (retinoic acid early transcript beta) | 1 | no change with or without drug | 0.22 | -0.67 |
| Cenpi (centromere protein I) | 1 | no change with or without drug | -0.67 | -0.34 |
| Eif1a (eukaryotic translation initiation factor 1A) | 1 | no change with or without drug | -1.12 | -0.17 |
| Atp5mk (ATP synthase membrane subunit k) | 1 | no change with or without drug | -1.57 | -0.17 |
| Gpx6 (glutathione peroxidase 6) | 1 | no change with or without drug | 1.01 | 0.17 |
| Dcaf5 (DDB1 and CUL4 associated factor 5) | 1 | no change with or without drug | 0.67 | -0.17 |
| Tmem39a (transmembrane protein 39a) | 1 | low cell count with doxorubicin only (active) | -2.02 | -0.17 |
| Akt1 (Akt serine/threonine kinase 1) | 1 | no change with or without drug | -0.34 | -0.51 |
| Akt1 (Akt serine/threonine kinase 1) | 1 | no change with or without drug | -1.12 | -1.18 |
| Tbcb (tubulin folding cofactor B) | 1 | no change with or without drug | -1.35 | -1.18 |
| Fbxw21 (F-box and WD-40 domain protein 21) | 1 | no change with or without drug | -1.35 | 0.67 |
| Pop1 | 1 | no change with or without drug | -1.35 | -1.18 |
| Adamts8 (ADAM metallopeptidase with thrombospondin type 1 motif 8) | 1 | no change with or without drug | 1.12 | 0.84 |
| Slc37a2 | 1 | no change with or without drug | -0.9 | 0 |
| Cxcl3 (C-X-C motif chemokine ligand 3) | 1 | low cell count without drug only | -1.01 | -2.19 |
| Brca2 (breast cancer 2, early onset) | 1 | low cell count without drug only | -1.46 | -2.02 |
| Cyth2 (cytohesin 2) | 1 | no change with or without drug | -0.45 | -0.17 |
| Senp8 (SUMO peptidase family member, NEDD8 specific) | 1 | no change with or without drug | -1.35 | -0.84 |
| Spic (Spi-C transcription factor (Spi-1/PU.1 related)) | 1 | no change with or without drug | -0.22 | -1.01 |
| Vgll1 (vestigial like family member 1) | 1 | no change with or without drug | -0.45 | -0.17 |
| 5330430C04Rik (RIKEN cDNA 5330430C04 gene) | 1 | no change with or without drug | -0.22 | 1.52 |
| Spag4 (sperm associated antigen 4) | 1 | no change with or without drug | 0.45 | -0.51 |
| Tmem80 (transmembrane protein 80) | 1 | no change with or without drug | 0.9 | -0.17 |
| Gm4814 (predicted gene 4814) | 1 | no change with or without drug | -1.12 | -0.17 |
| Brms1l (breast cancer metastasis-suppressor 1-like) | 1 | no change with or without drug | 0.22 | 0.17 |
| Or5p57 (olfactory receptor family 5 subfamily P member 57) | 1 | no change with or without drug | 0.11 | -0.51 |
| Erbb3 (erb-b2 receptor tyrosine kinase 3) | 1 | no change with or without drug | 0.9 | -1.18 |
| Gna14 (guanine nucleotide binding protein, alpha 14) | 1 | no change with or without drug | -1.8 | 1.69 |
| Brd7 (bromodomain containing 7) | 1 | no change with or without drug | -0.67 | -0.17 |
| Or4c124 (olfactory receptor family 4 subfamily C member 124) | 1 | high cell count without drug only | 1.8 | 2.02 |
| Atp13a5 (ATPase type 13A5) | 1 | high cell count with and without drug | 2.59 | 3.71 |
| Ppp1r15b (protein phosphatase 1, regulatory subunit 15B) | 1 | no change with or without drug | 0.9 | -0.17 |
| Atoh1 (atonal bHLH transcription factor 1) | 1 | no change with or without drug | 1.12 | 1.18 |
| Sorcs1 (sortilin-related VPS10 domain containing receptor 1) | 1 | low cell count with and without drug | -2.59 | -2.87 |
| Hsd17b11 (hydroxysteroid (17-beta) dehydrogenase 11) | 1 | no change with or without drug | 0.56 | -0.84 |
| Tmem214 (transmembrane protein 214) | 1 | no change with or without drug | -0.45 | 0.51 |
| Brpf1 (bromodomain and PHD finger containing, 1) | 1 | low cell count without drug only | -1.8 | -2.19 |
| Ywhag | 1 | no change with or without drug | -1.35 | -1.01 |
| Hoxd13 (homeobox D13) | 1 | no change with or without drug | -0.9 | -0.17 |
| Efcab6 (EF-hand calcium binding domain 6) | 1 | no change with or without drug | -0.45 | 0.84 |
| 6030445D17Rik (RIKEN cDNA 6030445D17 gene) | 1 | no change with or without drug | -0.56 | -0.51 |
| Col4a1 (collagen, type IV, alpha 1) | 1 | no change with or without drug | -0.11 | 0 |
| Peli3 (pellino 3) | 1 | no change with or without drug | -0.11 | 0.51 |
| Or4c114 (olfactory receptor family 4 subfamily C member 114) | 1 | no change with or without drug | 0.9 | -0.51 |
| Rnf133 (ring finger protein 133) | 1 | no change with or without drug | -0.67 | 0.51 |
| Mov10l1 (Mov10 like RISC complex RNA helicase 1) | 1 | no change with or without drug | -0.34 | -1.18 |
| Thbs2 (thrombospondin 2) | 1 | no change with or without drug | 0 | 1.01 |
| Chmp5 (charged multivesicular body protein 5) | 1 | no change with or without drug | -1.57 | 1.35 |
| Ccdc120 (coiled-coil domain containing 120) | 1 | no change with or without drug | -1.01 | 0.67 |
| Or5d46 (olfactory receptor family 5 subfamily D member 46) | 1 | no change with or without drug | 0.9 | -1.18 |
| Necab3 (N-terminal EF-hand calcium binding protein 3) | 1 | no change with or without drug | 0.22 | -0.84 |
| Cdnf (cerebral dopamine neurotrophic factor) | 1 | low cell count with doxorubicin only (active) | -2.02 | -1.18 |
| Or2d36 (olfactory receptor family 2 subfamily D member 36) | 1 | no change with or without drug | -0.45 | 0.51 |
| Dlgap1 (DLG associated protein 1) | 1 | high cell count with doxorubicin only | 3.26 | 1.52 |
| Acta1 (actin alpha 1, skeletal muscle) | 1 | no change with or without drug | -0.67 | -1.52 |

Records above whose gene name begins with R or r (2):
| gene knocked down | reagent | combined z-score class | viability z-score with doxorubicin | viability z-score without drug |
| --- | --- | --- | --- | --- |
| Raet1b (retinoic acid early transcript beta) | 1 | no change with or without drug | 0.22 | -0.67 |
| Rnf133 (ring finger protein 133) | 1 | no change with or without drug | -0.67 | 0.51 |
